PubChem BioAssay AID504808 – Drosophila RNAi Screening Center – 2011
In all, the deposit lists about 21,000 reagents; below is an unselected part of those that have a named target and a result. In the full data, 18 (0.084%) are marked active. 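Raw counts without plate normalisation, one of two replicates; the ratio scores behind the calls were not deposited.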 The record does not give: the amount of reagent, the time to read-out.

- Test: 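Genes whose loss lifts activity of an E2F-responsive reporter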 (primary screen)
- Cells: Drosophila S2 cells
- Reagents: long dsRNA against Drosophila genes
- Measurement: 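Dual luciferase plate measurements; E2F-specific signal taken as firefly over Renilla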
- Reading the numbers: E2F firefly: higher = more E2F reporter activity; Renilla normaliser: higher = more normaliser reporter signal
- Hit rule: 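Called active if the normalised E2F reporter went up by over 50%; the cutoff is arbitrary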

The first 3 entries, to show the layout:
Eig71Ed [DRSC11151] | E2F firefly, rep 1: 1.76e5; Renilla normaliser, rep 1: 8154; Call: inactive
CG9286 [DRSC16467] | E2F firefly, rep 1: 69811; Renilla normaliser, rep 1: 3584; Call: inactive
CG34238 [DRSC09040] | E2F firefly, rep 1: 1.31e5; Renilla normaliser, rep 1: 4715; Call: inactive

The listing, from the first entry:
Eig71Ed [DRSC11151] | E2F firefly, rep 1: 1.76e5; Renilla normaliser, rep 1: 8154; Call: inactive
CG9286 [DRSC16467] | E2F firefly, rep 1: 69811; Renilla normaliser, rep 1: 3584; Call: inactive
CG34238 [DRSC09040] | E2F firefly, rep 1: 1.31e5; Renilla normaliser, rep 1: 4715; Call: inactive
GATAd [DRSC02803] | E2F firefly, rep 1: 63622; Renilla normaliser, rep 1: 3223; Call: inactive
Nna1 [DRSC19404] | E2F firefly, rep 1: 8777; Renilla normaliser, rep 1: 648; Call: inactive
exu [DRSC07615] | E2F firefly, rep 1: 72601; Renilla normaliser, rep 1: 4184; Call: inactive
CR14798 [DRSC17956] | E2F firefly, rep 1: 73997; Renilla normaliser, rep 1: 4162; Call: inactive
CG34447 [DRSC00741] | E2F firefly, rep 1: 1.60e5; Renilla normaliser, rep 1: 5378; Call: inactive
Gdap2 [DRSC06789] | E2F firefly, rep 1: 1.49e5; Renilla normaliser, rep 1: 5266; Call: inactive
Gdap2 [DRSC06790] | E2F firefly, rep 1: 1.59e5; Renilla normaliser, rep 1: 5517; Call: inactive
CG2865 [DRSC18527] | E2F firefly, rep 1: 2044; Renilla normaliser, rep 1: 872; Call: inactive
CG2865 [DRSC18528] | E2F firefly, rep 1: 49604; Renilla normaliser, rep 1: 3883; Call: inactive
CG30156 [DRSC04959] | E2F firefly, rep 1: 1.31e5; Renilla normaliser, rep 1: 5283; Call: inactive
CG5986 [DRSC15931] | E2F firefly, rep 1: 79897; Renilla normaliser, rep 1: 3649; Call: inactive
Mms19 [DRSC12188] | E2F firefly, rep 1: 75406; Renilla normaliser, rep 1: 3553; Call: inactive
gammaCOP [DRSC16955] | E2F firefly, rep 1: 32736; Renilla normaliser, rep 1: 4714; Call: inactive
babo [DRSC07581] | E2F firefly, rep 1: 1.47e5; Renilla normaliser, rep 1: 5142; Call: inactive
ppk12 [DRSC04086] | E2F firefly, rep 1: 1.01e5; Renilla normaliser, rep 1: 4720; Call: inactive
CG18371 [DRSC06733] | E2F firefly, rep 1: 1.04e5; Renilla normaliser, rep 1: 4397; Call: inactive
CG15822 [DRSC08482] | E2F firefly, rep 1: 1.08e5; Renilla normaliser, rep 1: 3990; Call: inactive
CG15822 [DRSC08483] | E2F firefly, rep 1: 89311; Renilla normaliser, rep 1: 4572; Call: inactive
CG6484 [DRSC06991] | E2F firefly, rep 1: 72767; Renilla normaliser, rep 1: 3458; Call: inactive
CG42360 [DRSC04224] | E2F firefly, rep 1: 1.03e5; Renilla normaliser, rep 1: 4848; Call: inactive
kz [DRSC18786] | E2F firefly, rep 1: 1.05e5; Renilla normaliser, rep 1: 5659; Call: inactive
Act79B [DRSC11604] | E2F firefly, rep 1: 1.22e5; Renilla normaliser, rep 1: 6443; Call: inactive
CG2926 [DRSC12321] | E2F firefly, rep 1: 72422; Renilla normaliser, rep 1: 3671; Call: inactive
CG5265 [DRSC15756] | E2F firefly, rep 1: 1.28e5; Renilla normaliser, rep 1: 6720; Call: inactive
Vps36 [DRSC09785] | E2F firefly, rep 1: 1.24e5; Renilla normaliser, rep 1: 6757; Call: inactive
ZAP3 [DRSC17852] | E2F firefly, rep 1: 7663; Renilla normaliser, rep 1: 836; Call: inactive
ZAP3 [DRSC17853] | E2F firefly, rep 1: 1.32e5; Renilla normaliser, rep 1: 6685; Call: inactive
ZAP3 [DRSC18249] | E2F firefly, rep 1: 1.25e5; Renilla normaliser, rep 1: 6855; Call: inactive
CG32107 [DRSC09221] | E2F firefly, rep 1: 1.30e5; Renilla normaliser, rep 1: 3986; Call: inactive
ssh [DRSC16730] | E2F firefly, rep 1: 1.19e5; Renilla normaliser, rep 1: 5957; Call: inactive
boil [DRSC17872] | E2F firefly, rep 1: 1.06e5; Renilla normaliser, rep 1: 5408; Call: inactive
Ufsp1 [DRSC04958] | E2F firefly, rep 1: 1.33e5; Renilla normaliser, rep 1: 5149; Call: inactive
CG43896 [DRSC10754] | E2F firefly, rep 1: 1.32e5; Renilla normaliser, rep 1: 6920; Call: inactive
